Literature values in US20170348280A1 (priority 2016, published 2017).
For at least one compound, name, drawing or mass did not settle the structure.

Test system: human intestinal Caco-2 cells
Details: cited from earlier work

## COC(=O)C1=C(C)NC(C)=C(C(=O)OCCN(C)Cc2ccccc2)C1c1cccc([N+](=O)[O-])c1 (stereo not shown) [nicardipine]
  Na+-dependent and Na+-independent accumulation of ascorbic acid: inhibited
